For one molecule, binding results are on record in patent publication US20160041182A1 (Janssen / Centocor, published 2016).

These are yes or no findings as the source states them, for the method shown. Some results given as binding are weak or reduced against the parent protein; the word gives no strength.

The target in this assay is T1, mouse IL-17A (mouse, UniProt Q62386 26-158, limits assumed).
T1 construct: In SPR it was injected in solution, and no biotinylation is mentioned there; also called mIL-17A; mIL17A
T1 sequence (looked up): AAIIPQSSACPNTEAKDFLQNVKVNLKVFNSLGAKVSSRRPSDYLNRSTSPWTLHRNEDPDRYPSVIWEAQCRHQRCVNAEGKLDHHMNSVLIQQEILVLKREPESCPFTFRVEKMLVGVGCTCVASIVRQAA
As to the kind of experiment: SPR (ProteOn XPR-36).

B1: TP1KR9P62-D3 (designed binder)
chain: MLPAPKNLVVSRVTEDSARLSWTAPDAAFDSFAIEYFEDWWSGEAIVLTVPGSERSYDLTLKPGTEYSVSIRGVKGGYPSSPLSAIFTT
notes: also called TCL14-His fusion protein
For B1, the binding result is “binds”.
